B1: il10ra_site1_normal_mot_HHH_b2_00033_000000036_0001_41_54_H_._HHH_b1_00748_0001_0000600035_0000001_0 (protein)
chain: SSSSDVAELAAAAARLAIRLNNPELFQELWELAKRIVEEGDPRLREELEEIVRELEELISSSSSS
B2: il10ra_site1_normal_mot_HHH_b2_06142_af2_000000101_0001_1_18_H_._HHH_b1_03808_0002_0000700025_0000001_0 (protein)
chain: SSSSDEEVEELLKLLAQLAIRNPEFAEELQQVLVRVHNLLHRGNPEEARRLAEEAIERVEKSSSS
B3: il10ra_site1_sap_20_mot_8756ee2cf497b5429c717dfc0c0bcfd6_0001_000000186_0001_1_13_H_._HHH_b1_04711_0001_0000300015_0000001_0_0001_af2pred_dldesign_0_af2pred (protein)
chain: SSSSSSPERLQALLDRIEELLAAGRLGEAIKLLKEAVELAAELDDQEALQRARDLAGRLVSSSSS
B4: il10ra_site1_normal_mot_HHH_b1_05789_000000283_0001_1_15_H_._ems_3hM_213_0001_0000200005_0000001_0_af2pred_0001 (protein)
chain: PEIEELAEEAIELAEELKEKIQDPKLRHAVEAALRLLERALENRDERALEHAIRALELIAKLASS
B5: il10ra_site1_sap_36_mot_HHH_b1_05512_000000094_0001_1_18_H_._HHH_b1_00459_af2_0001_0000200011_0000001_0_0001 (protein)
chain: SSSSDEAREEVERLLEEAEEALEEGDEELVIRLLFEAVRLAMHGKDAELLRAVWELFESLSSSSS
B6: il10ra_site1_sap_21_mot_HHH_b2_04013_af2_000000040_0001_22_39_H_._HHH_b2_02292_af2_0001_0000200014_0000001_0_0001_af2pred_0001 (protein)
chain: SSSSDDEFFKRVAELLRRVNELARKGNPEEAERLLEEAKELAEEANDPYLKLSIEFVEERNSSSS
B7: il10ra_site1_sap_21_mot_HHH_b1_07100_000000193_0001_1_18_H_._HHH_b2_04755_0001_0000100001_0000003_0_0001 (protein)
chain: SSSSDEDEERVERLLEEAEELAEEGNPREAAKVLLEALQIAIQSNNPELLRRVWEVLQRLGSSSS
B8: il10ra_site1_normal_mot_HHH_b1_04940_000000219_0001_1_18_H_._HHH_b1_07862_0001_0000100003_0000001_0_af2pred_0001 (protein)
chain: SSSSSSAEEAARFFLKAAKQLEDPELVKRALRFAAWLAKSRNDEELLKEIEELLKEVEEGSSSSS
B9: il10ra_site1_sap_29_mot_HHH_b2_00345_af2_000000013_0001_42_56_H_._HHH_b1_06101_af2_0001_0000200013_0000001_1_0001 (protein)
chain: SSSSDEEEEIRELFEEAKELLEEGDEEEALRVLIELNRLAFRTGDPEAHRLVIELAELLKGSSSS
B10: il10ra_site1_normal_mot_2c1a291787c6f40772924d4e9068d803_0001_af2_000000222_0001_34_48_H_._HHH_b2_03388_0001_0000500030_0000001_0 (protein)
chain: SSSSDEYEERVFQLLIEAYRLAQRGNPEEAEKVLEEAEKILEENNDEANLRAVRRLLELLGSSSS
B11: il10ra_site1_normal_mot_HHH_b1_05860_000000142_0001_1_19_H_._HHH_b2_03504_0001_0000100005_0000001_0_af2pred_0001 (protein)
chain: SSSSDVEERVQELIEEAEELLEEGDLERVFELLEEILELAFKSNNPEIEKEARRLSRLLAGSSSS
B12: il10ra_site1_sap_16_mot_HHH_b2_02337_000000026_0001_38_52_H_._HHH_b2_04339_af2_0001_0000100005_0000001_0_0001 (protein)
chain: SSSSDEEEVEELLREARELAERGNHEEAFRLLFEALRIVVQLGNAELIQLIWEAIHFVANRSSSS
B13: il10ra_site1_sap_12_mot_HHH_b2_03328_af2_000000127_0001_1_19_H_._HHH_b1_02894_0001_0000200006_0000001_0_0001 (protein)
chain: SSSSSSSEVEELLREAEELLERGNPEEALRVIMEALRLALREGDEELFQELWELAKRVASSSSSS
B14: il10ra_site1_sap_21_mot_HHH_b1_06379_000000121_0001_1_16_H_._HHH_b1_00711_0001_0000100006_0000001_0_0001 (protein)
chain: SSSSDLEEAIRLVQAVVELDHEGNVEEARELVEEAEKVVEEAGNDVLRVQLEYLKRLLERHSSSS
B15: il10ra_site1_sap_11_mot_HHH_b1_06363_000000103_0001_21_38_H_._HHH_b2_01051_af2_0001_0000200005_0000001_0_0001 (protein)
chain: SSSSTEAQEVYELSREAAELDREGDPEEAEEVLQEALELARELGDWAARKVAEYMLRTINSSSSS
B16: il10ra_site1_sap_20_mot_HHH_b1_05088_af2_000000046_0001_20_36_H_._HHH_b1_05011_0001_0000100005_0000002_0_0001_af2pred_0001 (protein)
chain: SSSSDEEEVEKQVRELLEEAKRIPDPEERAYVLVRAFALANRLGDEELRKLVEEVAQELLSSSSS
B17: il10ra_site1_sap_23_mot_HHH_b1_03754_af2_000000016_0001_40_56_H_._HHH_b1_06703_0001_0000100002_0000001_0_0001 (protein)
chain: SSSSDEDQRALELVLEAMELALRGDPEEAEEVLKEALQVAEEGNNERLAEQIEILLEAQKSSSSS
B18: il10ra_site1_normal_mot_HHH_b2_06864_af2_000000190_0001_1_20_H_._HHH_b2_03449_0001_0000200027_0000002_0 (protein)
chain: SSSSSSDEEEVEELLEEAKQIEDPQEVFKLLRKAIEIAAEANDPELAELVMKVIRELFSSSSSSS
B19: il10ra_site1_normal_mot_a6c796b944619e241e020fd597ddb6da_0001_af2_000000092_0001_15_31_H_._HHH_b2_01778_af2_0001_0000200009_0000001_0 (protein)
chain: SSSSSSDDDEQRVRALIFFAKLSHNREAARISLEIAKEIAEEINNEELQKEIEELEKELSSSSSS
B20: il10ra_site1_normal_mot_HHH_b1_05757_000000171_0001_42_57_H_._HHH_b1_01891_af2_0001_0000100002_0000001_0_af2pred_dldesign_0_af2pred (protein)
chain: SSSSSPELEALAARIEELLAEGKYEEAFKLLKELAEKASEEKDLEAQARARRLARRLVESSSSSS
B21: il10ra_site1_sap_22_mot_HHH_b2_00099_af2_000000010_0001_1_19_H_._HHH_b1_00236_0001_0000500011_0000001_0_0001 (protein)
chain: SSSSDEEENEELLEQLERLIEEGDRERALELAQEAEEILVQNSDPEALHRLWRLVKEIAKLSSSS
B22: il10ra_site1_normal_mot_HHH_b1_02062_000000185_0001_1_20_H_._HHH_b1_03322_0001_0000300025_0000001_0 (protein)
chain: SSSSDIERRIYELSREAAELDSQGDPERAEEVLEEAKELAEEINNLNLLFQVRFLERVLHSSSSS
B23: il10ra_site1_normal_mot_HHH_b2_05797_000000294_0001_1_19_H_._HHH_b2_04237_0001_0000500046_0000002_0 (protein)
chain: SSSSDLEEYVRAARRFAEALLEAGDPEAARRILRLLLEVVERLGNEELARELEKLLEEVEGSSSS
B24: il10ra_site1_normal_mot_8756ee2cf497b5429c717dfc0c0bcfd6_0001_000000186_0001_1_13_H_._HHH_b1_07180_0001_0000100004_0000001_0_af2pred_0001 (protein)
chain: SSSSSEVEELYRLLRRIAELLHNGNEEEARKLIEEAEEVAQEAGNLVVEVILEFLLKNLDSSSSS

The other results are listed elsewhere or left out.

The assay has as its target il10ra, Q13651. Briefly: yeast display titration.
As for B1, the “apparent Kd” value is “inactive: no binding seen”.

Take B2: the “apparent Kd” value is “inactive: no binding seen”.

With B3, the “apparent Kd” value was “inactive: no binding seen”.

As for B4, the “apparent Kd” value is “inactive: no binding seen”.

Consider B5, for which the “apparent Kd” value was “inactive: no binding seen”.

As to B6, the “apparent Kd” value was “inactive: no binding seen”.

Turning to B7, the “apparent Kd” value is “inactive: no binding seen”.

As to B8, the “apparent Kd” value is “inactive: no binding seen”.

Take B9: the “apparent Kd” value was “inactive: no binding seen”.

With B10, the “apparent Kd” value was “inactive: no binding seen”.

As for B11, the “apparent Kd” value was “inactive: no binding seen”.

With B12, the “apparent Kd” value is “inactive: no binding seen”.

In the case of B13, the “apparent Kd” value is “inactive: no binding seen”.

For B14, the “apparent Kd” value is “inactive: no binding seen”.

B15: the “apparent Kd” value is “inactive: no binding seen”.

On to B16, for which the “apparent Kd” value is “inactive: no binding seen”.

In the case of B17, the “apparent Kd” value was “inactive: no binding seen”.

As for B18, the “apparent Kd” value is “inactive: no binding seen”.

On to B19, for which the “apparent Kd” value was “inactive: no binding seen”.

For the molecule B20, the “apparent Kd” value is “inactive: no binding seen”.

Take B21: the “apparent Kd” value was “inactive: no binding seen”.

For the molecule B22, the “apparent Kd” value is “inactive: no binding seen”.

Consider B23, for which the “apparent Kd” value was “inactive: no binding seen”.

With B24, the “apparent Kd” value is “inactive: no binding seen”.

The values above are taken from article PMC10163288.
